Assay results published in PubChem BioAssay AID248 (DTP/NCI, 2004).
The list does not hold the whole screen: it gathers tests that were run many times, whatever their T/C, doses with no T/C, and many T/C values between a quarter and a half above the control. Other doses and runs of a compound stand elsewhere. T/C is the treated group as % of the vehicle group. Some entries give survivors of the animals treated and no T/C: the source holds a T/C of zero for them, seemingly a mark for toxic or unscored doses. Some doses without a T/C left all or most animals alive at the check, yet need not have been tolerated: survival well below the control is almost never listed, so the zero probably covers shortened survival too. Survivors were counted at the toxicity check, usually on the fifth day, unless a day is given; later deaths do not show. Schedules are NCI's codes, read here as Q, the interval in days (D) or hours (H), X, the number of doses. Some molecules as drawn cover several salts, stereoisomers or complexes of the source; a dose is that of the sample tested. Brackets with × stand for listed records that agree. Some doses were run more than once; the results are listed from low to high. Where survival is the endpoint, the PubChem record calls one and a half times the control and up active, and a quarter to a half above the control has no call in these data; cut-offs in other NCI protocols can differ. Some T/C values are followed by the survivors on the day toxicity was checked, most often the fifth; where none is given, no animal had died by that day.

Test system: L1210 leukemia ip in BDF1 mice, survival T/C
Assay: NCI In Vivo Anticancer Drug Screen. Data for tumor model L1210 Leukemia (intraperitoneal) in B6D2F1 (BDF1) mice
Conditions: higher T/C = longer survival

In the case of `COc1cc(NS(C)(=O)=O)ccc1Nc1c2ccccc2nc2ccccc12`, the T/C (T/C endpoint: mean survival time, dose: 0.25 mg/kg/injection, schedule: Q01DX009 (ip), vehicle: saline with Tween-80) is reported as 143 % of control, the T/C (T/C endpoint: mean survival time, dose: 0.5 mg/kg/injection, schedule: Q01DX009 (ip), vehicle: other) is reported as 130 % of control and the T/C (T/C endpoint: mean survival time, dose: 0.5 mg/kg/injection, schedule: Q03HX008 (ip), vehicle: other) is reported as 134 % of control. For the same compound, the T/C (T/C endpoint: mean survival time, dose: 0.59 mg/kg/injection, schedule: Q01DX009 (ip), vehicle: saline) was 143 % of control, the T/C (T/C endpoint: mean survival time, dose: 0.75 mg/kg/injection, schedule: Q01DX009 (ip), vehicle: Klucel (hydroxypropylcellulose) (HPC)) was 132 % of control and the T/C (T/C endpoint: mean survival time, dose: 0.89 mg/kg/injection, schedule: Q01DX009 (ip), vehicle: saline) was 142 % of control. For the same compound, the T/C (T/C endpoint: mean survival time, dose: 1.0 mg/kg/injection, schedule: Q01DX009 (ip), vehicle: other) was 139 % of control, the T/C (T/C endpoint: mean survival time, dose: 1.0 mg/kg/injection, schedule: Q03HX008 (ip), vehicle: other) was 138 % of control and the T/C (T/C endpoint: mean survival time, dose: 1.35 mg/kg/injection, schedule: Q01DX009 (ip), vehicle: Klucel (hydroxypropylcellulose) (HPC)) was 140 % of control. For the same compound, the T/C (T/C endpoint: mean survival time, dose: 1.5 mg/kg/injection, schedule: Q01DX009 (ip), vehicle: Klucel (hydroxypropylcellulose) (HPC)) was 146 % of control, the T/C (T/C endpoint: mean survival time, dose: 1.56 mg/kg/injection, schedule: Q01DX009 (ip), vehicle: saline with Tween-80) was 141 % of control and the T/C (T/C endpoint: mean survival time, dose: 2.0 mg/kg/injection, schedule: Q01DX009 (ip), vehicle: Klucel (hydroxypropylcellulose) (HPC)) was 138 % of control. The T/C (T/C endpoint: mean survival time, dose: 2.0 mg/kg/injection, schedule: Q01DX009 (ip), vehicle: other) was 142 % of control, the T/C (T/C endpoint: mean survival time, dose: 2.05 mg/kg/injection, schedule: Q01DX009 (ip), vehicle: saline) was 148 % of control and the T/C (T/C endpoint: mean survival time, dose: 3.12 mg/kg/injection, schedule: Q01DX009 (ip), vehicle: saline) was 141 % of control. The T/C (T/C endpoint: mean survival time, dose: 3.75 mg/kg/injection, schedule: Q04DX003 (ip), vehicle: other) was 129 % of control, the T/C (T/C endpoint: mean survival time, dose: 4.0 mg/kg/injection, schedule: Q01DX009 (ip), vehicle: other) was 135 % of control and the survivor count (T/C endpoint: mean survival time, dose: 4.0 mg/kg/injection, schedule: Q03HX008 (ip), vehicle: other) was 7 of 10. For the same compound, the T/C (T/C endpoint: mean survival time, dose: 4.68 mg/kg/injection, schedule: Q01DX009 (ip), vehicle: saline) was 146 % of control, the T/C (T/C endpoint: mean survival time, dose: 5.0 mg/kg/injection, schedule: Q01DX009 (sc), vehicle: saline) was 130 % of control and the T/C (T/C endpoint: mean survival time, dose: 6.0 mg/kg/injection, schedule: Q01DX009 (sc), vehicle: saline) was 131 % of control. The T/C (T/C endpoint: mean survival time, dose: 7.5 mg/kg/injection, schedule: Q01DX001 (ip), vehicle: other) was 126 and 131 % of control, the T/C (T/C endpoint: mean survival time, dose: 8.0 mg/kg/injection, schedule: Q01DX009 (ip), vehicle: Klucel (hydroxypropylcellulose) (HPC)) was 141 % of control and the T/C (T/C endpoint: mean survival time, dose: 10.0 mg/kg/injection, schedule: Q01DX009 (sc), vehicle: saline) was 133 and 146 % of control [8 of 10 alive]. The survivor count (T/C endpoint: mean survival time, dose: 12.0 mg/kg/injection, schedule: Q01DX009 (ip), vehicle: Klucel (hydroxypropylcellulose) (HPC)) was 6 of 6, the T/C (T/C endpoint: mean survival time, dose: 12.5 mg/kg/injection, schedule: Q01DX001 (ip), vehicle: saline) was 135 % of control and the survivor count (T/C endpoint: mean survival time, dose: 12.5 mg/kg/injection, schedule: Q01DX009 (ip), vehicle: saline with Tween-80) was 8 of 10. For the same compound, the survivor count (T/C endpoint: mean survival time, dose: 14.0 mg/kg/injection, schedule: Q01DX009 (ip), vehicle: water) was 3 of 8 (2×), the T/C (T/C endpoint: mean survival time, dose: 15.0 mg/kg/injection, schedule: Q01DX001 (ip), vehicle: Klucel (hydroxypropylcellulose) (HPC)) was 142 % of control and the survivor count (T/C endpoint: mean survival time, dose: 15.0 mg/kg/injection, schedule: Q01DX001 (ip), vehicle: clinical formulation) was 6 of 10. The T/C (T/C endpoint: mean survival time, dose: 15.0 mg/kg/injection, schedule: Q01DX001 (ip), vehicle: other) was 143 and 144 % of control, the survivor count (T/C endpoint: mean survival time, dose: 16.0 mg/kg/injection, schedule: Q01DX009 (ip), vehicle: Klucel (hydroxypropylcellulose) (HPC)) was 6 of 6 and the survivor count (T/C endpoint: mean survival time, dose: 16.0 mg/kg/injection, schedule: Q01DX009 (ip), vehicle: other) was 10 of 10. The T/C (T/C endpoint: mean survival time, dose: 18.75 mg/kg/injection, schedule: Q01DX001 (ip), vehicle: saline with Tween-80) was 142 % of control, the survivor count (T/C endpoint: mean survival time, dose: 20.0 mg/kg/injection, schedule: Q01DX009 (ip), vehicle: saline with Tween-80) was 6 of 10 and the T/C (T/C endpoint: mean survival time, dose: 20.0 mg/kg/injection, schedule: Q01DX009 (sc), vehicle: saline) was 135 % of control. The survivor count (T/C endpoint: mean survival time, dose: 23.0 mg/kg/injection, schedule: Q01DX009 (ip), vehicle: water) was 0 of 8 (2×), the T/C (T/C endpoint: mean survival time, dose: 25.0 mg/kg/injection, schedule: Q01DX001 (ip), vehicle: saline) was 146 % of control and the survivor count (T/C endpoint: mean survival time, dose: 25.0 mg/kg/injection, schedule: Q01DX009 (ip), vehicle: acetone) was 6 of 6. The survivor count (T/C endpoint: mean survival time, dose: 25.0 mg/kg/injection, schedule: Q01DX009 (ip), vehicle: saline with Tween-80) was 5 of 10 and 6 of 10, the survivor count (T/C endpoint: mean survival time, dose: 25.0 mg/kg/injection, schedule: Q01DX009 (ip), vehicle: saline) was 6 of 6 and the survivor count (T/C endpoint: mean survival time, dose: 30.0 mg/kg/injection, schedule: Q01DX001 (ip), vehicle: clinical formulation) was 7 of 10. For the same compound, the survivor count (T/C endpoint: mean survival time, dose: 30.0 mg/kg/injection, schedule: Q01DX001 (ip), vehicle: other) was 6 of 10, the survivor count (T/C endpoint: mean survival time, dose: 30.0 mg/kg/injection, schedule: Q04DX003 (ip), vehicle: other) was 5 of 10 and the T/C (T/C endpoint: mean survival time, dose: 33.0 mg/kg/injection, schedule: Q01DX001 (ip), vehicle: saline) was 143 and 147 % of control. For the same compound, the survivor count (T/C endpoint: mean survival time, dose: 39.0 mg/kg/injection, schedule: Q01DX009 (ip), vehicle: water) was 0 of 8 (2×), the survivor count (T/C endpoint: mean survival time, dose: 40.0 mg/kg/injection, schedule: Q01DX009 (ip), vehicle: saline with Tween-80) was 0 of 10 and the survivor count (T/C endpoint: mean survival time, dose: 45.0 mg/kg/injection, schedule: Q01DX001 (ip), vehicle: clinical formulation) was 2 of 10. The survivor count (T/C endpoint: mean survival time, dose: 50.0 mg/kg/injection, schedule: Q01DX001 (ip), vehicle: Klucel (hydroxypropylcellulose) (HPC)) was 2 of 3, the T/C (T/C endpoint: mean survival time, dose: 50.0 mg/kg/injection, schedule: Q01DX001 (ip), vehicle: saline) was 142 % of control and the survivor count (T/C endpoint: mean survival time, dose: 50.0 mg/kg/injection, schedule: Q01DX009 (ip), vehicle: saline with Tween-80) was 5 of 10. For the same compound, the survivor count (T/C endpoint: mean survival time, dose: 50.0 mg/kg/injection, schedule: Q01DX009 (ip), vehicle: saline) was 0 of 6, the survivor count (T/C endpoint: mean survival time, dose: 60.0 mg/kg/injection, schedule: Q01DX001 (ip), vehicle: clinical formulation) was 4 of 10 and the T/C (T/C endpoint: mean survival time, dose: 75.0 mg/kg/injection, schedule: Q01DX001 (ip), vehicle: saline with Tween-80) was 133 [9 of 10 alive] and 143 % of control. The survivor count (T/C endpoint: mean survival time, dose: 100.0 mg/kg/injection, schedule: Q01DX001 (ip), vehicle: Klucel (hydroxypropylcellulose) (HPC)) was 2 of 3, the survivor count (T/C endpoint: mean survival time, dose: 100.0 mg/kg/injection, schedule: Q01DX001 (ip), vehicle: saline) was 2 of 6 and the survivor count (T/C endpoint: mean survival time, dose: 120.0 mg/kg/injection, schedule: Q01DX001 (ip), vehicle: Klucel (hydroxypropylcellulose) (HPC)) was 6 of 10. For the same compound, the survivor count (T/C endpoint: mean survival time, dose: 150.0 mg/kg/injection, schedule: Q01DX001 (ip), vehicle: saline with Tween-80) was 6 of 10, the survivor count (T/C endpoint: mean survival time, dose: 200.0 mg/kg/injection, schedule: Q01DX001 (ip), vehicle: saline) was 1 of 6 and the survivor count (T/C endpoint: mean survival time, dose: 240.0 mg/kg/injection, schedule: Q01DX001 (ip), vehicle: Klucel (hydroxypropylcellulose) (HPC)) was 0 of 10. The survivor count (T/C endpoint: mean survival time, dose: 300.0 mg/kg/injection, schedule: Q01DX001 (ip), vehicle: saline with Tween-80) was 1 of 10, the survivor count (T/C endpoint: mean survival time, dose: 400.0 mg/kg/injection, schedule: Q01DX001 (ip), vehicle: saline) was 0 of 6 and the T/C (T/C endpoint: median survival time, dose: 2.0 mg/kg/injection, schedule: Q01DX009 (sc), vehicle: other) was 129 % of control. The T/C (T/C endpoint: median survival time, dose: 4.0 mg/kg/injection, schedule: Q01DX009 (sc), vehicle: other) was 135 % of control, the survivor count (T/C endpoint: median survival time, dose: 16.0 mg/kg/injection, schedule: Q01DX009 (oral), vehicle: other) was 10 of 10 and the survivor count (T/C endpoint: median survival time, dose: 16.0 mg/kg/injection, schedule: Q01DX009 (sc), vehicle: other) was 9 of 10. The survivor count (T/C endpoint: median survival time, dose: 32.0 mg/kg/injection, schedule: Q01DX009 (oral), vehicle: other) was 8 of 10.

With `Cc1ccc2c(c1)CCCN2C` the survivor count (T/C endpoint: mean survival time, dose: 200.0 mg/kg/injection, schedule: Q01DX009 (ip), vehicle: saline) was 2 of 6 and the survivor count (T/C endpoint: mean survival time, dose: 400.0 mg/kg/injection, schedule: Q04DX003 (ip), vehicle: saline) was 0 of 6.

`N#CSCc1ccccc1` was tested, and the survivor count (T/C endpoint: mean survival time, dose: 300.0 mg/kg/injection, schedule: Q01DX001 (ip), vehicle: carboxymethylcellulose (CMC)) was 1 of 6.
